42 sequences from publication PMC7819943, “Rice protein-binding microarrays: a tool to detect cis-acting elements near promoter regions in rice” can be followed below.

By UniProt entry, the sequences of proteins in these tests, tags left out.
UniProt Q0JBA9, entry or part of it: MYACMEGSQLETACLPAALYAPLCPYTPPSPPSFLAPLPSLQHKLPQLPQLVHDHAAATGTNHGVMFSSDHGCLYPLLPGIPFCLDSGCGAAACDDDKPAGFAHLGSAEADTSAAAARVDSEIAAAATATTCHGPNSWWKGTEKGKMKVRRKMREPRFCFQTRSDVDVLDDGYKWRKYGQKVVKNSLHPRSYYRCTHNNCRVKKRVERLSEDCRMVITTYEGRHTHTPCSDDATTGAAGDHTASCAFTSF

Some of the results follow.

This experiment has as its target OsWRKY34 (Oryza sativa, UniProt Q0JBA9 1-250). Put plainly: protein-binding microarray (RPBM); PBS, 2% BSA, 51.3 ng/ul salmon testes DNA, 50 uM zinc acetate, 200 nM TF, 25 C, 1 h; high values mean tight binding. The following applies: protein: recombinant; tags: N-terminal polyhistidine and DsRed monomer fusion (pET32a); label: CyDye5-dUTP incorporated in the synthesized complementary strand; 3' TTTTT single-stranded linker to array surface; dsDNA, one strand shown. In short, it runs like this:
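Using Ni–NTA, transcription factors fused N-terminally to polyhistidine and DsRed were purified after expression in E. coli BL21-CodonPlus. These were incubated at 200 nM with a blocked, double-stranded custom Agilent array for 1 h at 25 °C in a buffer containing 50 µM zinc acetate, and the array was washed. The binding signal is per-feature fluorescence intensity (arbitrary units) on an Axon 4000B scanner.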
For “AGCTCACAATTTTTTTTCTTGCTCATGACGTGCTTAGACCCGGAGTCACCTAGTGCAG”, the binding signal is 11000 fluorescence intensity (a.u.).
With “CGTCCCTCGCGCACCGCCCGGCCAAGCCGCTCCCAGGGACCGGAGTCACCTAGTGCAG”, the binding signal was 8640 fluorescence intensity (a.u.).
The result for “GGGCATTTTTGATATTTCACGCGATTTCACTCTCCTCTTCCGGAGTCACCTAGTGCAG” reads 8770 fluorescence intensity (a.u.); that for “TCTTAGACATGATATTTTTATAAATGTAGTTTGACTTTTTCGGAGTCACCTAGTGCAG”, 9730 fluorescence intensity (a.u.); that for “TACATTGCTAGAAAGCGCCGCACCCGTCACCGGCAAACTCCGGAGTCACCTAGTGCAG”, 9870 fluorescence intensity (a.u.).
On to “CTAGCTTTCGTCTCAGCGCTCCGTCCTGCGGTCTTTTGGGCGGAGTCACCTAGTGCAG”, for which the binding signal was 10600 fluorescence intensity (a.u.).
“CCTTTTCTCGATCTGCACCATCCCCAAGCCCAATAAAAGACGGAGTCACCTAGTGCAG”: the binding signal is 8520 fluorescence intensity (a.u.).
The result for “TCCACCACACACGCGCACCAACCGAAGGCGAAATCCCCAACGGAGTCACCTAGTGCAG” reads 8060 fluorescence intensity (a.u.); that for “TATTATAGGTGTTGGTTCTGTATCGGTTAATTAAAGAACGCGGAGTCACCTAGTGCAG”, 9440 fluorescence intensity (a.u.); that for “ACACACACAGCCCCAGATTCCATTTCACACTCGCGTATATCGGAGTCACCTAGTGCAG”, 8870 fluorescence intensity (a.u.).
Turning to “ACTCAAGTCTTAGGGGCTGTTTGGTTGGTTGCCACACTTTCGGAGTCACCTAGTGCAG”, the binding signal is 10200 fluorescence intensity (a.u.).
The result for “TAGCTCACATCGTTTTACGTATCTTCCCAATCTCCTGATCCGGAGTCACCTAGTGCAG” reads 8950 fluorescence intensity (a.u.).
“ACGCACACCACTCCACTCCATCCATCTACTCCACCGCGCTCGGAGTCACCTAGTGCAG”: the binding signal is 8360 fluorescence intensity (a.u.).
On to “TTTTTGGATTGACTACTTCATTGTTCTATGTGAGCACGTTCGGAGTCACCTAGTGCAG”, for which the binding signal was 8760 fluorescence intensity (a.u.).
Take “GCCGGATCGAACTCATCAGCATCAGCACATCTCTCTTCTCCGGAGTCACCTAGTGCAG”: the binding signal was 8970 fluorescence intensity (a.u.).
The result for “CCTCGTCGTCCTCCACTCCGCTCTCCAACGCGAACGCTTCCGGAGTCACCTAGTGCAG” reads 8130 fluorescence intensity (a.u.); that for “TGCCCTGCATTGCACAGTACAGCAACCATACGATTCCGTACGGAGTCACCTAGTGCAG”, 8950 fluorescence intensity (a.u.); that for “ACGCCGTTGGCTTTTTAGCATATATTTGACCATTCATCTTCGGAGTCACCTAGTGCAG”, 8190 fluorescence intensity (a.u.).
Take “GTATTGCTCTTATTCACCATAATCATACCAGTATAATATTCGGAGTCACCTAGTGCAG”: the binding signal is 8390 fluorescence intensity (a.u.).
Next, “TCACGTCCAACGTTTGACCGCTCGTCTTATTTGAAATTTTCGGAGTCACCTAGTGCAG”: 8370 fluorescence intensity (a.u.); “CACACGTCTCCATCTCCATCGAGCCCAGCTCCACGAGCCGCGGAGTCACCTAGTGCAG”: 9350 fluorescence intensity (a.u.); “ATGCCCCGATGGCCCATGGCCCCGCCGACTCGCACCCGACCGGAGTCACCTAGTGCAG”: 10500 fluorescence intensity (a.u.).
The result for “CAGCTCGTTGACATTCCTAATTGTTTTGATTGTCATCCACCGGAGTCACCTAGTGCAG” reads 8480 fluorescence intensity (a.u.).
“GCATTTGTAGTGGCACAACCGCTGTCACTGTCGTTACACACGGAGTCACCTAGTGCAG”: the binding signal is 8780 fluorescence intensity (a.u.).
For the sequence “ACGCTCCATCAATGTATTTTTGTGTCGGGGCCCTAACTTACGGAGTCACCTAGTGCAG”, the binding signal was 9030 fluorescence intensity (a.u.).
The result for “GGGGTTGATCTCCCGCCCATTTGGGGCTCGGTATTGAGGTCGGAGTCACCTAGTGCAG” reads 8060 fluorescence intensity (a.u.); that for “TTGGATGTTGGTATGCTGTGTAGCTGTTGCTCTATGAACACGGAGTCACCTAGTGCAG”, 10600 fluorescence intensity (a.u.).
As for “GTTTTGTGCTGTGCTTTCCCCTCCTTTCATGCCTCAAAGCCGGAGTCACCTAGTGCAG”, the binding signal was 9230 fluorescence intensity (a.u.).
The result for “GTGATCCGACCTGACCGGCCTCCGTTTCGCGTCTCCGTTGCGGAGTCACCTAGTGCAG” reads 9180 fluorescence intensity (a.u.).
As for “CTGCCAATTCCCAGCCTCTCCTTGTCTCCCCGAGGCTAAACGGAGTCACCTAGTGCAG”, the binding signal is 10400 fluorescence intensity (a.u.).
Regarding “CGCGTACCGACAGGTCACATCGGGGCCATCCTGACCGTCCCGGAGTCACCTAGTGCAG”, the binding signal is 8850 fluorescence intensity (a.u.).
Regarding “ACCTTCTGCCTGCCTGCGCCGGATTCGCCTTCCTCCCGATCGGAGTCACCTAGTGCAG”, the binding signal is 11900 fluorescence intensity (a.u.).
As to “TCGCGCCTCCGACCGTCCGATCAGCTGCCAACCCCGGGCTCGGAGTCACCTAGTGCAG”, the binding signal is 8400 fluorescence intensity (a.u.).
“GCCTCTCTCGTAGTCTCAGTTCTCCTCCTACGTTCTACTGCGGAGTCACCTAGTGCAG”: the binding signal was 10800 fluorescence intensity (a.u.).
Next, “AGATTTTGGGTGTGTTTGGTTGCTTGCATTGTTTTAGTCTCGGAGTCACCTAGTGCAG”: 9320 fluorescence intensity (a.u.).
Consider “GGGGTGTGTGTGCTCGGCTACTCCGGTGGGTCGGGTCTGGCGGAGTCACCTAGTGCAG”, for which the binding signal was 12700 fluorescence intensity (a.u.).
The result for “TCAGTTTGCCCACCGCCGCCTCCGCCTTCGCCGCCGCCATCGGAGTCACCTAGTGCAG” reads 8180 fluorescence intensity (a.u.); that for “AATATTTTTTTTCTCAATCATTTCTTATCATTATTATTATCGGAGTCACCTAGTGCAG”, 8280 fluorescence intensity (a.u.); that for “TTTTATGGTGTTCTATAGTATAGTCAATCGACTTTTCATCCGGAGTCACCTAGTGCAG”, 8130 fluorescence intensity (a.u.).
Turning to “TTTCTCTTTATTTCTTTCTCCCATTCTTCCTTTCTCTTTACGGAGTCACCTAGTGCAG”, the binding signal is 8890 fluorescence intensity (a.u.).
Next, “TGCAACTAACGCCTCACATGGTACACAGCACAGCAGCAGCCGGAGTCACCTAGTGCAG”: 8400 fluorescence intensity (a.u.).
Consider “GGGTAATTCGTCTGGTATTGAAAGTTCCGGGTGAACAATACGGAGTCACCTAGTGCAG”, for which the binding signal is 8310 fluorescence intensity (a.u.).
